According to patent US20030027835A1 (priority 1999, published 2003):
Several values for one entry are separate records, joined by “and”; a condition that tells them apart may be missing. Identical values can stand only once.

Test system: sodium currents in rat dorsal root ganglia (DRG) neurons
Assay type: cell-based
Conditions: maleate

## CCC(COC(=O)c1cc(OC)c(OC)c(OC)c1)(c1ccccc1)N(C)C.O=C(O)/C=C\C(=O)O (racemic) [Trimebutine, 2-dimethylamino-2-phenylbutyl 3,4,5-trimethoxybenzoate hydrogen maleate]
  Hill coefficient nH, block of Na+ current: 1.09±0.10 and 1.02
